For two molecules, binding results are on record in patent US7459543B2, “Modulators of antiestrogen pharmacology” (priority 2000, dated 2008).

By UniProt entry, the sequences of proteins in these tests, tags left out.
UniProt P03372: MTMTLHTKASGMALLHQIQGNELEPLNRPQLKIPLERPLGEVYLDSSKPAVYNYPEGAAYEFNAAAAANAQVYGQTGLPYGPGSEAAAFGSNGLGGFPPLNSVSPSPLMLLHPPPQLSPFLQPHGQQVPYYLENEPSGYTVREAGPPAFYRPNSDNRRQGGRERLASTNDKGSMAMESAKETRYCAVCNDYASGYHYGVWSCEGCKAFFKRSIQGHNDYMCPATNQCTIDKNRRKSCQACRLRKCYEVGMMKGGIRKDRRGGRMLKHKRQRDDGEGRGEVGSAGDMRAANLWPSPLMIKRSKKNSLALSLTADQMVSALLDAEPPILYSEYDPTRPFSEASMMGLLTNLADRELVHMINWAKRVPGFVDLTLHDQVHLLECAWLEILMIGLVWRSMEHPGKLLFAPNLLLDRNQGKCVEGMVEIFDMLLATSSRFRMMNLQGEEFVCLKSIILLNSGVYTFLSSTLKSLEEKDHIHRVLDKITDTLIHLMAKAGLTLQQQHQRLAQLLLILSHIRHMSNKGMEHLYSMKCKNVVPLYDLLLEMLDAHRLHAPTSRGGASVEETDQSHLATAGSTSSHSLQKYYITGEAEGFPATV

For experiment [1], the target named is Estrogen Receptor alpha (ERalpha), in vitro translated and [35S]-methionine-labeled (UniProt P03372). The experiment can be described thus: GST pull-down of in vitro transcribed and translated [35S]-ERα.
For experiment [2] the target is unchanged. As to the kind of experiment: GST pull-down of in vitro translated [35S]-ERα with vehicle, E2, TOT or ICI; autoradiograph.
Experiment [3] shares this target. As to the kind of experiment: summary of the GST pull-down results.

Results are given in words; binding and its absence hold for the method and conditions named. In cells and extracts the contact can be indirect. Some entries that bind do so weakly or less than the wild type. For part of these data: Sequences can lack the tags named with a protein.

B1: glutathione-S-transferase (GST) fusion protein wherein GST was fused to ERCoA3 (protein, not shown: a dimerising Fc or GST)
chain: MCGRPRRVSAGCGFADAHWTGLWTGLGEGQEGGIGPEGQASPTPDCASRWPRSASRWPWSAGLTVRDRPQLGELCMGRG
As for B1, the binding result in experiment [1] and in experiment [2] was “binds” each time.

B2: Estrogen Receptor Coregulator 3 (ERCoA3) protein (protein)
chain: MCGRPRRVSAGCGFADAHWTGLWTGLGEGQEGGIGPEGQASPTPDCASRWPRSASRWPWSAGLTVRDRPQLGELCMGRG
Take B2: in experiment [3], the binding entry was “binds”.
